Source: publication PMC5504347
Results are given in words; binding and its absence hold for the method and conditions named. Binding seen in cells or lysates may run through a third protein. A yes stands for co-enrichment or nearness to the bait. Other partners may have been found. Sequences can lack the tags named with a protein.

Amino acid sequences for entries named in this document (tags omitted). A change or cut given only in a name is not applied to a line headed by its entry. Chains listed by the source or under a name are the forms on record and can include a tag or linker.
UBE2D3 (E2 ubiquitin ligase) (P61077-2, form named): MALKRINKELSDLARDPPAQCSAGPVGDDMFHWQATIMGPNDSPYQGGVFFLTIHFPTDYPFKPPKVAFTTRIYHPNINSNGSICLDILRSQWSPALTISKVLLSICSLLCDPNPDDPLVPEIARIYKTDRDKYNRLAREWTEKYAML

Biological target: T1, 3xFlag-ZNF598 (Zinc Finger Protein 598) (human) (UniProt Q86UK7)
T1 sequence: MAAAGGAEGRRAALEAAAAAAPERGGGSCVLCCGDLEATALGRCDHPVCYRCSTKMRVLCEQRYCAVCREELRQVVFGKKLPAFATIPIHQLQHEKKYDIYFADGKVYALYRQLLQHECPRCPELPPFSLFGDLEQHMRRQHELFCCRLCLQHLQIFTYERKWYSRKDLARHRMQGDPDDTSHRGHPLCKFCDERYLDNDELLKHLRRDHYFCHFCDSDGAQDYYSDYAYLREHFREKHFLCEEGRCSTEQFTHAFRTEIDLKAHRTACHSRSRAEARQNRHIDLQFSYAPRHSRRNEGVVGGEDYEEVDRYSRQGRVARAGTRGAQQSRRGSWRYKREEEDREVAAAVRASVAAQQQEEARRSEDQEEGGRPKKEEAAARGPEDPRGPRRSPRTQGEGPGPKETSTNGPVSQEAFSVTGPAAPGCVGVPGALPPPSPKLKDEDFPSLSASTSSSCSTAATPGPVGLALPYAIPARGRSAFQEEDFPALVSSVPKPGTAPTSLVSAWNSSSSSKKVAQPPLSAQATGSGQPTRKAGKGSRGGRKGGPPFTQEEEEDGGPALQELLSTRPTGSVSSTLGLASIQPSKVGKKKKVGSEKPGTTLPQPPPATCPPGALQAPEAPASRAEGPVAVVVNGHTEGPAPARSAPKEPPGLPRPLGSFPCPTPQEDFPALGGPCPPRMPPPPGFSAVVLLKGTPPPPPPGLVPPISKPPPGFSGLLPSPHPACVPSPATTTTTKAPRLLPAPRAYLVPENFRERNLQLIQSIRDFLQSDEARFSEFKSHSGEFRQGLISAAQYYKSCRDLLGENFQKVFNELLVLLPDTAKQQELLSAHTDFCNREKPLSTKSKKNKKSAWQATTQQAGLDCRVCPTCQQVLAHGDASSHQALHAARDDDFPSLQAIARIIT
Assay: affinity purification with mass spectrometry; anti-FLAG-M2 magnetic beads on NP40 lysate of cells expressing 3xFlag-ZNF598 or 3xFlag alone; washes with 300 mM and 500 mM KCl; elution with Flag peptide; label-free LC-MS/MS; three biological replicates

binding: binds
Substance: UBE2D3 (E2 ubiquitin ligase) (from UniProt P61077-2 1-148) (enzyme)
